Measurements reported in patent US20250152688A1 (priority 2021, published 2025).
For some assays here: Where a sequence shows no end group, the ends are not given.

Columns and labels:
[1] = general procedure: Fmoc solid-phase peptide synthesis; Rink amide resin; Sieber resin (Fmoc-Sieber-polystyrene, 0.61 mmol/g); DIC/Oxyma pure and DIPEA; details: whole synthesis, scale of the general procedure 0.3 mmol
[2] = general procedure: Fmoc solid-phase peptide synthesis; Fmoc-Sieber-polystyrene resin; DIC/Oxyma pure and DIPEA; details: whole synthesis, scale 0.3 mmol

Substance	purity (crude or final not stated) [1]	isolated yield [2]
ALFSVLNYERARRPGLLGASVLGLDDIHRA	96% pure	–
DBCO-Lys(Br)-Lys(Br)-Lys(Br)-Ser(PG)-NH2	–	30% yield
FSVLNYERARRPGLL	95% pure	–
RPGLLGASVLGLDDI	95% pure	–
VLNYERARRPGLLGA	95% pure	–
